Source: PMC7819943, “Rice protein-binding microarrays: a tool to detect cis-acting elements near promoter regions in rice”
The list shows a part of the results.

By UniProt entry, the sequences of proteins in these tests, tags left out.
UniProt Q0JBA9, entry or part of it: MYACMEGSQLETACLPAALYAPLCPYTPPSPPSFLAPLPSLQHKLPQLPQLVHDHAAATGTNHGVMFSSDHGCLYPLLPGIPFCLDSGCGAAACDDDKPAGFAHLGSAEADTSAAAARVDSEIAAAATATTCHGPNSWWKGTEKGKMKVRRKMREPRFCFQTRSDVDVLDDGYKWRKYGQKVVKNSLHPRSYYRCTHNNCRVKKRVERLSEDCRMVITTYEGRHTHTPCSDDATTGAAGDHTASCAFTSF

Molecular target: OsWRKY34 (Oryza sativa, UniProt Q0JBA9 1-250)
Test: protein-binding microarray (RPBM); PBS, 2% BSA, 51.3 ng/ul salmon testes DNA, 50 uM zinc acetate, 200 nM TF, 25 C, 1 h; high values mean tight binding
Details: protein: recombinant; tags: N-terminal polyhistidine and DsRed monomer fusion (pET32a); label: CyDye5-dUTP incorporated in the synthesized complementary strand; 3' TTTTT single-stranded linker to array surface; dsDNA, one strand shown
Procedure, shortened: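 Transcription factors, each fused N-terminally to a polyhistidine tag and DsRed, were expressed in E. coli BL21-CodonPlus and purified on Ni–NTA. A custom Agilent array was made double-stranded by primer extension with Cy5-dUTP and blocked with 2% BSA. It was incubated with 200 nM protein in PBS, 2% BSA, salmon testes DNA and 50 µM zinc acetate at 25 °C for 1 h, then washed. The binding signal is per-feature fluorescence intensity (arbitrary units) read on an Axon 4000B scanner.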

Q: Which binding signal does the source give for “CCTTGAAGTCTAGCTGGAGTAATACCCTTGTGCAAATCCTCGGAGTCACCTAGTGCAG” here?
A: 8070 fluorescence intensity (a.u.)

Q: “CGAGCTAGAGCGTATATTCTGGTCCCGTTCATTTCTTCAACGGAGTCACCTAGTGCAG” was tested. Which binding signal did it give?
A: 10300 fluorescence intensity (a.u.)

Q: With “CCCCAGCCGACTTAATGGCCCAACCGTCTTCTCTGGTTGTCGGAGTCACCTAGTGCAG” as the sequence, how does the binding signal read?
A: 9210 fluorescence intensity (a.u.)

Q: For “GTGGTTTGTGCACCGTGCACCCGAGCTGGTTATTATTATACGGAGTCACCTAGTGCAG”, which binding signal is on record?
A: 8460 fluorescence intensity (a.u.)

Q: How did the binding signal turn out when “GCGGCGCCATTTTCCGTTCAGCTCACTTTTGCCTCTCTTCCGGAGTCACCTAGTGCAG” was run?
A: 11300 fluorescence intensity (a.u.)

Q: “CGGCTGCCGCGACTCCACCACCTCTCCTCGCTTTGCTTGCCGGAGTCACCTAGTGCAG” was tested. Which binding signal did it give?
A: 8960 fluorescence intensity (a.u.)

Q: Which binding signal does the source give for “ATTAACCCCGCGCGATCTCTCTATATAGGCATATACTATGCGGAGTCACCTAGTGCAG” here?
A: 11200 fluorescence intensity (a.u.)

Q: For “ATCGCCCTCTTCCTTGTCTCTAGCAGCTCAGCCGCCAGAACGGAGTCACCTAGTGCAG”, which binding signal is on record?
A: 9000 fluorescence intensity (a.u.)

Q: Which binding signal does the source give for “TATATTTTCTTCTTCGTCACGATCGATGGGATTTTTATTTCGGAGTCACCTAGTGCAG” here?
A: 9040 fluorescence intensity (a.u.)

Q: How did the binding signal turn out when “CGGGGTGCTGGGTTTCCGGGTGAAGGCGTCTTCGTGCGAGCGGAGTCACCTAGTGCAG” was run?
A: 9500 fluorescence intensity (a.u.)

Q: “TATGTCCTCTGCGAATCTATGCAGACAATAAACAAGCTTCCGGAGTCACCTAGTGCAG” was tested. Which binding signal did it give?
A: 8400 fluorescence intensity (a.u.)

Q: How did the binding signal turn out when “TAATCTGTACATAACCACTGCTGCTTTGCTAACAGGCGCCCGGAGTCACCTAGTGCAG” was run?
A: 8380 fluorescence intensity (a.u.)

Q: “TCCTCAATTTGACTTGTACCGTGTAGCCATCGATTTTCTTCGGAGTCACCTAGTGCAG” was tested. Which binding signal did it give?
A: 11500 fluorescence intensity (a.u.)

Q: Which binding signal does the source give for “GCCTTTCGATACCTTAATTCTCGATATTTTTTCTTTTCACCGGAGTCACCTAGTGCAG” here?
A: 12500 fluorescence intensity (a.u.)

Q: With “TTTCCCACGTTTTGTCATTTTTTCAGCTATATATTAATTTCGGAGTCACCTAGTGCAG” as the sequence, how does the binding signal read?
A: 12000 fluorescence intensity (a.u.)

Q: “GGCTTGCCGCGCCGCCTCCTACCTCCCGGATTTCCTCCTTCGGAGTCACCTAGTGCAG” was tested. Which binding signal did it give?
A: 8530 fluorescence intensity (a.u.)

Q: For “ATTCATTAGGGTGTAATTTGTAAATTGTCTTGAGTCTTTACGGAGTCACCTAGTGCAG”, which binding signal is on record?
A: 8280 fluorescence intensity (a.u.)

Q: How did the binding signal turn out when “AATTTTGTCGTCCGATCCATATATTTTGCTCATCTTTTCCCGGAGTCACCTAGTGCAG” was run?
A: 8590 fluorescence intensity (a.u.)

Q: With “CATTTCAAACCACAAGTATATCTCTACCATCCTATTTTTACGGAGTCACCTAGTGCAG” as the sequence, how does the binding signal read?
A: 9400 fluorescence intensity (a.u.)

Q: With “CCTCACCACACGCGCCGTCTCCTCGATCACCACACGCGCACGGAGTCACCTAGTGCAG” as the sequence, how does the binding signal read?
A: 8430 fluorescence intensity (a.u.)

Q: How did the binding signal turn out when “GCCGTCATAGCATCGATCGCCAGTTCGCCACAGCACAATGCGGAGTCACCTAGTGCAG” was run?
A: 8050 fluorescence intensity (a.u.)

Q: Which binding signal does the source give for “GCTCTCAATCTCATCCTTTCGTCTATTCCTTGCAGTCTTGCGGAGTCACCTAGTGCAG” here?
A: 8400 fluorescence intensity (a.u.)

Q: Which binding signal does the source give for “TTCCTTCGCGATCTCACCCCGCGTGCCCTAGCTAGCTATCCGGAGTCACCTAGTGCAG” here?
A: 8390 fluorescence intensity (a.u.)

Q: With “CATTTTATTGTGAACTTTTTCCTTTTAAACTCGATGTTTACGGAGTCACCTAGTGCAG” as the sequence, how does the binding signal read?
A: 10700 fluorescence intensity (a.u.)

Q: With “CTCTCTCTCTCTCTCTCTCTAGCTTCCACCTCCTGATCCACGGAGTCACCTAGTGCAG” as the sequence, how does the binding signal read?
A: 11000 fluorescence intensity (a.u.)

Q: For “CTCCTACACTAGGTATACGTCCATATATAGCAATAATCACCGGAGTCACCTAGTGCAG”, which binding signal is on record?
A: 8200 fluorescence intensity (a.u.)

Q: For “CTTGGAGGTGGTTCAGGTGGAGGCGGCGGTCTCGGAGGTGCGGAGTCACCTAGTGCAG”, which binding signal is on record?
A: 9240 fluorescence intensity (a.u.)

Q: How did the binding signal turn out when “GTCACTTTTGCAGAGGCCGGGCTGCTGTTCTTCGTATTTACGGAGTCACCTAGTGCAG” was run?
A: 10800 fluorescence intensity (a.u.)

Q: With “GTTTAGTAGACCTCCAACTCCTAAATTTAGGGCCATTTTTCGGAGTCACCTAGTGCAG” as the sequence, how does the binding signal read?
A: 8200 fluorescence intensity (a.u.)

Q: Which binding signal does the source give for “AGCTATCATTTATGGATTTAACCGCGGTTTCTTTGTCTTTCGGAGTCACCTAGTGCAG” here?
A: 11100 fluorescence intensity (a.u.)

Q: “CACTTCCTTCTCTAGGCTTATTAACAGCTTATTTCTGATCCGGAGTCACCTAGTGCAG” was tested. Which binding signal did it give?
A: 9280 fluorescence intensity (a.u.)

Q: For “GATTAGTTGTGGATATCTGGTTTTCTGGTTTGGATGACAACGGAGTCACCTAGTGCAG”, which binding signal is on record?
A: 8790 fluorescence intensity (a.u.)

Q: How did the binding signal turn out when “GGCGACCCGCTTGTCTCACTCTCTCTCTGCTACAGCTAGCCGGAGTCACCTAGTGCAG” was run?
A: 9620 fluorescence intensity (a.u.)

Q: “TGCGTGTTGTGTGTGTGGGTGATCTTTGGCGCGCCTCGTCCGGAGTCACCTAGTGCAG” was tested. Which binding signal did it give?
A: 8120 fluorescence intensity (a.u.)

Q: For “CGTCCATTTTAGATCATGCGATGCTAGTTTGACTGCTTATCGGAGTCACCTAGTGCAG”, which binding signal is on record?
A: 8520 fluorescence intensity (a.u.)

Q: With “TGTCACATTTTTCGTCGTCTCCATCTTCATCTTCTTGTCGCGGAGTCACCTAGTGCAG” as the sequence, how does the binding signal read?
A: 11200 fluorescence intensity (a.u.)

Q: How did the binding signal turn out when “CGTGGCTCCCTTTACATTACAGCGTAATCAAGCGTCATTACGGAGTCACCTAGTGCAG” was run?
A: 10300 fluorescence intensity (a.u.)

Q: Which binding signal does the source give for “CAGGTACTGTAGTTGAATTCTTGTGTCAGTGTCACACTATCGGAGTCACCTAGTGCAG” here?
A: 8900 fluorescence intensity (a.u.)

Q: How did the binding signal turn out when “CAGTTTTCATCGTTAACGACCACTCGGGCGTGGTATTCGTCGGAGTCACCTAGTGCAG” was run?
A: 8420 fluorescence intensity (a.u.)

Q: For “TCTTCTTTTTTTCACCCAGATCAAGGAGCCCTCAGAAATACGGAGTCACCTAGTGCAG”, which binding signal is on record?
A: 8390 fluorescence intensity (a.u.)

Q: For “CGGGTCTTGACTCTTGACCCTTCACATTTCGGTCAGCTCGCGGAGTCACCTAGTGCAG”, which binding signal is on record?
A: 9150 fluorescence intensity (a.u.)

Q: How did the binding signal turn out when “AGTTTAGGGGAGGGTTTCTCCTGAGGCTCTTATACCGTGTCGGAGTCACCTAGTGCAG” was run?
A: 14100 fluorescence intensity (a.u.)

Q: Which binding signal does the source give for “ACCTTATTCTTGCACAAATCTTCAAGCACTTTCAGTGATGCGGAGTCACCTAGTGCAG” here?
A: 8420 fluorescence intensity (a.u.)

Q: For “CCACTTCTCGCCATGAAAACAGCGCCACAATTTCCAATTCCGGAGTCACCTAGTGCAG”, which binding signal is on record?
A: 9660 fluorescence intensity (a.u.)

Q: With “GGCGGCAGGGGCTATTTCTGCAATTTTTTTGGTTGATAGACGGAGTCACCTAGTGCAG” as the sequence, how does the binding signal read?
A: 11600 fluorescence intensity (a.u.)

Q: For “ACAGCACATACATATGTAAGGATTTGTTTCCACAACCTCTCGGAGTCACCTAGTGCAG”, which binding signal is on record?
A: 9590 fluorescence intensity (a.u.)

Q: “CTCGTGCGCCACCGTCCACCGTCGCCGAGCCGGTGCCATCCGGAGTCACCTAGTGCAG” was tested. Which binding signal did it give?
A: 8710 fluorescence intensity (a.u.)

Q: For “CTCATGATTTGGTTAGTAGTAGTTGGTTGGTTAGTTTACGCGGAGTCACCTAGTGCAG”, which binding signal is on record?
A: 12000 fluorescence intensity (a.u.)

Q: “TTTTTTGTTTTCTCCTTTGCTCGGCTTCTGCTGGTCCTGACGGAGTCACCTAGTGCAG” was tested. Which binding signal did it give?
A: 9360 fluorescence intensity (a.u.)

Q: How did the binding signal turn out when “CGAACCAAGACAAGAAAATAGAACCATCCTATCTATCAGGCGGAGTCACCTAGTGCAG” was run?
A: 11500 fluorescence intensity (a.u.)

Q: With “ATCACCACACAACCAATCGGCTGCACGATGCAATCAAACTCGGAGTCACCTAGTGCAG” as the sequence, how does the binding signal read?
A: 8030 fluorescence intensity (a.u.)

Q: “GAGCTTTGAATGCCAATCTTCACCACCATAGTAGTACTATCGGAGTCACCTAGTGCAG” was tested. Which binding signal did it give?
A: 8470 fluorescence intensity (a.u.)

Q: “TCTTTTTTTTTGATTTGTTATTTCACTTGCGCCAGATTTTCGGAGTCACCTAGTGCAG” was tested. Which binding signal did it give?
A: 11400 fluorescence intensity (a.u.)

Q: With “CAAAATCCAGCGGTGGGACGTTCTCGGGGTATACTTTCATCGGAGTCACCTAGTGCAG” as the sequence, how does the binding signal read?
A: 9440 fluorescence intensity (a.u.)
